Our source for the step yield values is patent US10543284B2 (Suzhou Suncadia Biopharmaceuticals Co., Ltd., priority 2015, dated 2020).

A short description of the series: general procedure: solution-phase peptide synthesis; 2-(7-Azabenzotriazol)-N,N,N',N'-tetramethyluronium hexafluorophosphate / N,N-dii. The conditions noted are these: late stage modification step.

The substance “(S)-2-((2R,3R)-3-((1S,3S,5S)-2-((3R,4S,5S)-4-((S)—N,3-dimethyl-2-((S)-3-methyl-2-(methylamino)butanamide)butanamide)-3-methoxy-5-methylheptanoyl)-2-azabicyclo[3.1.0]hexane-3-yl)-3-methoxy-2-methylpropanamido)-3-(2-fluorophenyl) propionic acid” had a step yield of 20%.
